Laboratory results taken from US20240218022A1, “ANTI-VISTA MACROCYCLIC PEPTIDES AND COMPOSITIONS” (BRISTOL-MYERS SQUIBB COMPANY, priority 2022, published 2024).
Like-named read-outs stand apart in the source and are kept apart here. For at least one compound, name, drawing or mass did not settle the structure. Starred links: 1 amine or outer side, 2 acyl side, 3 side chain; linkers in the order of their positions; H or OH if unused. Positions of bridges follow the written chain, without caps; N, C: chain ends. Non-standard residues stand in square brackets, D forms with d. Residues, ends and D or L forms follow the SMILES beside them. 2Nal = N[C@@H](Cc1ccc2ccccc2c1)C(=O)O; βAsp = O=C(O)[C@H](CC(=O)[*:2])N[*:1]; Ahp(2) = CCCCC[C@H](N)C(=O)O; NMeNle = CCCC[C@H](NC)C(=O)O; Tle = CC(C)(C)[C@H](N)C(=O)O; NHexGly = CCCCCCNCC(=O)O; Nle = CCCC[C@H](N)C(=O)O; Aun = NCCCCCCCCCCC(=O)O; AEEA = NCCOCCOCC(=O)O

Biological target: T1, mouse VISTA (mVISTA) (Mus musculus, UniProt Q9D659)
T1 construct: expressed in transfected cells; host or cells: Human embryonic kidney 293T cells
T1 sequence (Q9D659 33-308): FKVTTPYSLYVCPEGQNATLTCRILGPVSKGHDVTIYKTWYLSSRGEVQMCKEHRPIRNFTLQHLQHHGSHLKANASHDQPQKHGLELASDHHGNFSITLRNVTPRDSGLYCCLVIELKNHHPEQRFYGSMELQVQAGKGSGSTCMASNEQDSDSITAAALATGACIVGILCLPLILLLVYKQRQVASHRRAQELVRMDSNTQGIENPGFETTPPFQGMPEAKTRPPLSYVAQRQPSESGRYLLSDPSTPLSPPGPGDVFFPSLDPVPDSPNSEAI
Assay: Cell-Based Binding High-Content Assay For mVISTA (HC CBA mVISTA)
Conditions: read-out: HC CBA mVISTA IC50
Outline: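 Read-out: Alexa 647–streptavidin signal imaged on fixed, Hoechst-stained mVISTA-293T cells, with IC50 taken from a four-parameter logistic curve. Compounds competed with 2 nM biotinylated peptide for 30 min at room temperature, tested under both no-wash and wash (1 h compound, media exchange, 1 h) formats.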

Row | Structure (SMILES) | IC50 (cell-based binding high-content assay) | IC50
1 | CCCCCCN1CC(=O)N[C@@H](Cc2ccc(O)cc2)C(=O)N[C@@H](CCCC)C(=O)N[C@@H](CC(N)=O)C(=O)N[C@@H](CCCNC(=N)N)C(=O)N(C)[C@@H](CCCC)C(=O)N[C@@H](CCCCC)C(=O)N2CCC[C@H]2C(=O)N[C@@H](C(C)(C)C)C(=O)N[C@@H](CO)C(=O)N[C@H](C(=O)NCC(=O)N[C@@H](CC(=O)NCCOCCOCC(=O)NCCCCCCCCCCC(=O)O)C(=O)O)CSCC(=O)N[C@@H](Cc2ccccc2)C(=O)N[C@@H](Cc2c[nH]c3ccccc23)C(=O)N[C@@H](CC(=O)O)C1=O [Example 2325] ({CH2CO}-FWD[NHexGly]Y[Nle]NR[NMeNle][Ahp(2)]P[Tle]SCG[βAsp][AEEA][Aun]-OH; thioether N-14) | 19.2 nM | –
2 | CCCCCCN1CC(=O)N[C@@H](Cc2ccc(O)cc2)C(=O)N[C@@H](C(C)C)C(=O)NCC(=O)N[C@@H](CCCNC(=N)N)C(=O)N[C@@H](CC(C)C)C(=O)N[C@@H](CCCCC)C(=O)N2CCC[C@H]2C(=O)N[C@@H](C(C)C)C(=O)N[C@@H](CC(=O)O)C(=O)N[C@H](C(=O)NCCOCCOCC(=O)N[C@@H](CC(=O)NCCOCCOCC(=O)NCCCCCCCCCCC(=O)O)C(=O)O)CSCC(=O)N[C@@H](Cc2ccc3ccccc3c2)C(=O)N[C@@H](Cc2ccc(O)cc2)C(=O)N[C@@H](CC(=O)O)C1=O [Example 2205] ({CH2CO}-[2Nal]YD[NHexGly]YVGRL[Ahp(2)]PVDC[AEEA][βAsp][AEEA][Aun]-OH; thioether N-14) | – | 26 nM
